# Laboratory results reported in the M2OR odorant receptor database.
# The list shows a part of the results, in another mix than the full data. The calls were merged from several studies; some rest on single wells. This is one part of the list.
# How the values were obtained:
# Settings in all cases: stereoisomer not certain
# OR1A1 = tested on: T1, OR1A1
# T1 sequence (whole entry): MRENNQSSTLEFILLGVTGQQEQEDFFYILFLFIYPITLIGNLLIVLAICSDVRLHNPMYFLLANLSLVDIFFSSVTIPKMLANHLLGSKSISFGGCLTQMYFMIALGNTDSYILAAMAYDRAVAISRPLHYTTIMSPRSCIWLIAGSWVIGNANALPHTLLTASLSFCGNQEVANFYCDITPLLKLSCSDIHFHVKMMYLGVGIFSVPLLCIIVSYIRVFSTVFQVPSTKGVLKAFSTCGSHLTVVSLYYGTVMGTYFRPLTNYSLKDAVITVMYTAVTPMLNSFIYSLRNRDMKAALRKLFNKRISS
# Outline: (§1)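 Transient luciferase assays in mammalian cell lines were common, though methods varied by source. The values come from published papers and their supplementary material, with extra details from the original authors when needed. Responsive refers to a measured signal the original authors judged statistically different from baseline, and non-responsive (inactive) to the remainder.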
# OR1A2 (Homo sapiens) = target: T2, OR1A2 (Homo sapiens) (UniProt Q9Y585)
# T2 sequence (whole entry): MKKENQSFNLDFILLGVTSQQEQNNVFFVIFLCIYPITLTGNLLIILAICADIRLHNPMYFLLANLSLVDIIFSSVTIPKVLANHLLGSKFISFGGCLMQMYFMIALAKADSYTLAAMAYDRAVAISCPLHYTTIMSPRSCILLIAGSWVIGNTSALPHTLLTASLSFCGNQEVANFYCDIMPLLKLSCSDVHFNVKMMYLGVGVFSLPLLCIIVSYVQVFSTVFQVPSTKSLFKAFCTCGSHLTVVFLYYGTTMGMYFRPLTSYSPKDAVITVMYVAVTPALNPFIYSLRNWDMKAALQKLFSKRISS
# Outline: as §1
# [1] = tested on: OR1A2 A108G K109N T254V V277T
# Outline: as §1
# OR1A2 A108G K109N T254V = tested on: OR1A2 A108G K109N T254V
# Outline: as §1
# [2] = tested on: OR1A2 A108G K109N V205I T254V V277T
# Outline: as §1
# [3] = tested on: OR1A2 A108G K109N V205I T254V
# Outline: as §1
# [4] = tested on: OR1A2 A108G K109N V205I V277T
# Outline: as §1
# OR1A2 A108G K109N V205I = tested on: OR1A2 A108G K109N V205I
# Outline: as §1
# OR1A2 A108G K109N = tested on: OR1A2 A108G K109N
# Outline: as §1
# OR1A2 A108G V205I = tested on: OR1A2 A108G V205I
# Outline: as §1
# 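Also: active if original authors judged signal statistically different from baseline.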
smiles,measurement,setting,value
CC(=O)OC1CC2CCC1(C)C2(C)C (stereo not drawn),odorant receptor agonist call,OR1A1,inactive
same,odorant receptor agonist call,OR1A2 (Homo sapiens),inactive
CCCCCC(C)=O,odorant receptor agonist call,OR1A1,inactive
same,odorant receptor agonist call,OR1A2 (Homo sapiens),inactive
COc1ccccc1O,odorant receptor agonist call,OR1A1,inactive
same,odorant receptor agonist call,OR1A2 (Homo sapiens),inactive
CC1COCc2cc3c(cc21)C(C)(C)C(C)C3(C)C (stereo not drawn),odorant receptor agonist call,OR1A1,active
same,odorant receptor agonist call,OR1A2 (Homo sapiens),inactive
CC(=O)OCC=C(C)CCC=C(C)C,odorant receptor agonist call,OR1A1,inactive
same,odorant receptor agonist call,OR1A2 (Homo sapiens),inactive
CCC1(O)C2(C)CCC(C2)C1(C)C (stereo not drawn),odorant receptor agonist call,OR1A1,inactive
same,odorant receptor agonist call,OR1A2 (Homo sapiens),inactive
CC(=O)OC(C)(C)C1CC=C(C)CC1 (stereo not drawn),odorant receptor agonist call,OR1A1,inactive
same,odorant receptor agonist call,OR1A2 (Homo sapiens),inactive
CC(=O)C(C)=O,odorant receptor agonist call,OR1A1,inactive
same,odorant receptor agonist call,OR1A2 (Homo sapiens),inactive
O=C1CCCCCCCCCCCC(=O)OCCO1,odorant receptor agonist call,OR1A1,inactive
same,odorant receptor agonist call,OR1A2 (Homo sapiens),inactive
CCCC(=O)O,odorant receptor agonist call,OR1A1,inactive
same,odorant receptor agonist call,OR1A2 (Homo sapiens),inactive
COC(=O)c1ccccc1O,odorant receptor agonist call,OR1A1,inactive
same,odorant receptor agonist call,OR1A2 (Homo sapiens),inactive
COC(=O)c1ccccc1,odorant receptor agonist call,OR1A1,inactive
same,odorant receptor agonist call,OR1A2 (Homo sapiens),inactive
C=CCc1ccc(OC)c(OC)c1,odorant receptor agonist call,OR1A1,inactive
same,odorant receptor agonist call,OR1A2 (Homo sapiens),inactive
CC(C)CC(=O)O,odorant receptor agonist call,OR1A1,inactive
same,odorant receptor agonist call,OR1A2 (Homo sapiens),inactive
CCC=CCCO,odorant receptor agonist call,OR1A1,inactive
same,odorant receptor agonist call,OR1A2 (Homo sapiens),inactive
CC12C=CCC1C1CCC3CC(=O)CCC3(C)C1CC2 (stereo not drawn),odorant receptor agonist call,OR1A1,inactive
CCCCO,odorant receptor agonist call,OR1A1,inactive
same,odorant receptor agonist call,OR1A2 (Homo sapiens),inactive
CCCCCCOC(=O)CCC,odorant receptor agonist call,OR1A1,inactive
same,odorant receptor agonist call,OR1A2 (Homo sapiens),inactive
CC(C)CCC(=O)O,odorant receptor agonist call,OR1A1,inactive
same,odorant receptor agonist call,OR1A2 (Homo sapiens),inactive
CCCCCCCCCCC=O,odorant receptor agonist call,OR1A1,inactive
same,odorant receptor agonist call,OR1A2 (Homo sapiens),inactive
O=CCc1ccccc1,odorant receptor agonist call,OR1A1,inactive
same,odorant receptor agonist call,OR1A2 (Homo sapiens),inactive
C=CCSCC=C,odorant receptor agonist call,OR1A1,inactive
same,odorant receptor agonist call,OR1A2 (Homo sapiens),inactive
c1ccc(Oc2ccccc2)cc1,odorant receptor agonist call,OR1A1,inactive
same,odorant receptor agonist call,OR1A2 (Homo sapiens),inactive
CC(C)(C)c1ccc(CCC=O)cc1,odorant receptor agonist call,OR1A1,inactive
same,odorant receptor agonist call,OR1A2 (Homo sapiens),inactive
CC(C)=CCCC(C)=CC=O,odorant receptor agonist call,OR1A1,inactive
same,odorant receptor agonist call,OR1A2 (Homo sapiens),active
CCCCCCCCCC=O,odorant receptor agonist call,OR1A1,inactive
CC12CCC(C1)C(C)(C)C2=O (stereo not drawn),odorant receptor agonist call,OR1A1,inactive
same,odorant receptor agonist call,OR1A2 (Homo sapiens),inactive
C=CCc1ccc(OC(C)=O)c(OC)c1,odorant receptor agonist call,OR1A1,inactive
same,odorant receptor agonist call,OR1A2 (Homo sapiens),inactive
c1cnccn1,odorant receptor agonist call,OR1A1,inactive
same,odorant receptor agonist call,OR1A2 (Homo sapiens),inactive
CC=Cc1ccc(O)c(OC)c1,odorant receptor agonist call,OR1A1,inactive
same,odorant receptor agonist call,OR1A2 (Homo sapiens),inactive
CCCCCOC(C)=O,odorant receptor agonist call,OR1A1,inactive
same,odorant receptor agonist call,OR1A2 (Homo sapiens),inactive
CC12C=CCC1C1CCC3=CC(=O)CCC3(C)C1CC2 (stereo not drawn),odorant receptor agonist call,OR1A1,inactive
same,odorant receptor agonist call,OR1A2 (Homo sapiens),inactive
CCCCCCCOC(C)=O,odorant receptor agonist call,OR1A1,inactive
same,odorant receptor agonist call,OR1A2 (Homo sapiens),inactive
CC(C)C(=O)O,odorant receptor agonist call,OR1A1,inactive
same,odorant receptor agonist call,OR1A2 (Homo sapiens),inactive
COc1cc(C=O)ccc1O,odorant receptor agonist call,OR1A1,inactive
same,odorant receptor agonist call,OR1A2 (Homo sapiens),inactive
CCCCCCCC=O,odorant receptor agonist call,OR1A1,inactive
same,odorant receptor agonist call,OR1A2 (Homo sapiens),active
COc1cc(C)ccc1O,odorant receptor agonist call,OR1A1,inactive
same,odorant receptor agonist call,OR1A2 (Homo sapiens),inactive
CC(=O)c1ccccc1,odorant receptor agonist call,OR1A1,inactive
same,odorant receptor agonist call,OR1A2 (Homo sapiens),inactive
C=C(C)C1CC=C(C)C(=O)C1 (stereo not drawn),odorant receptor agonist call,OR1A1,active
same,odorant receptor agonist call,OR1A2 (Homo sapiens),inactive
same,odorant receptor agonist call,[1],inactive
same,odorant receptor agonist call,OR1A2 A108G K109N T254V,inactive
same,odorant receptor agonist call,[2],inactive
same,odorant receptor agonist call,[3],inactive
same,odorant receptor agonist call,[4],inactive
same,odorant receptor agonist call,OR1A2 A108G K109N V205I,inactive
same,odorant receptor agonist call,OR1A2 A108G K109N,inactive
same,odorant receptor agonist call,OR1A2 A108G V205I,inactive
CCCCCCCC=CC=O,odorant receptor agonist call,OR1A1,inactive
same,odorant receptor agonist call,OR1A2 (Homo sapiens),inactive
CCCCCCCCOC(C)=O,odorant receptor agonist call,OR1A1,inactive
same,odorant receptor agonist call,OR1A2 (Homo sapiens),inactive
O=C1CCCCC1,odorant receptor agonist call,OR1A1,inactive
same,odorant receptor agonist call,OR1A2 (Homo sapiens),inactive
CC1=CCC(C(C)(C)O)CC1 (stereo not drawn),odorant receptor agonist call,OR1A1,active
same,odorant receptor agonist call,OR1A2 (Homo sapiens),inactive
CCCCCCC=O,odorant receptor agonist call,OR1A2 (Homo sapiens),active
C=CC(C)(O)CCC=C(C)C (stereo not drawn),odorant receptor agonist call,OR1A1,inactive
same,odorant receptor agonist call,OR1A2 (Homo sapiens),inactive
CC1=NC(C)SC1C (stereo not drawn),odorant receptor agonist call,OR1A1,inactive
same,odorant receptor agonist call,OR1A2 (Homo sapiens),inactive
CCCCCC(=O)O,odorant receptor agonist call,OR1A1,inactive
same,odorant receptor agonist call,OR1A2 (Homo sapiens),inactive
CCCCCCCCC=O,odorant receptor agonist call,OR1A2 (Homo sapiens),active
O=C1CCCCCCCCCCCCCCO1,odorant receptor agonist call,OR1A1,inactive
same,odorant receptor agonist call,OR1A2 (Homo sapiens),inactive
CC(C)C=O,odorant receptor agonist call,OR1A1,inactive
same,odorant receptor agonist call,OR1A2 (Homo sapiens),inactive
CC1CCC(C(C)C)C(O)C1 (stereo not drawn),odorant receptor agonist call,OR1A1,active
same,odorant receptor agonist call,OR1A2 (Homo sapiens),inactive
CC12CCC(CC1)C(C)(C)O2,odorant receptor agonist call,OR1A1,inactive
same,odorant receptor agonist call,OR1A2 (Homo sapiens),inactive
